Results as given in patent US20060135500A1, “Novel oral pharmaceutical suspension of cefdinir crystal” (Astellas Pharma Inc., priority 2004, published 2006).
For at least one compound, name, drawing or mass did not settle the structure.

What was measured:
Format in all cases: physicochemical
[1] = Moisture adsorption/desorption isotherm with PXRD at controlled relative humidity
[2] = Solvent medium transformation (suspension in water or ethanol, PXRD of residual solid); conditions: water, room temperature, 5 minutes stirring
Method: Form A and the monohydrate were suspended in water or ethanol (99.5) at room temperature, and the powder X-ray diffraction (PXRD) patterns of the residual solid materials were measured (Bruker AXS D8 Discover with GADDS).

[3] = Dispersibility comparison assay, Method 1 (visual observation of suspension in test tube); conditions: about 1250 mg in 50 mL of water (125 mg/5 mL), shaken by hand
Method: The dispersibility of two crystal forms of Cefdinir was compared by evaluating sedimentation rates of two crystal forms. The evaluating sedimentation rate was conducted by using two methods as follow. About 1250 mg of crystal form A or the monohydrate were dispersed in 50 mL of water (125 mg/5 mL), and the suspensions were vigorously shaken by hand. […] The pictures of suspension states were taken with time.

C=CC1=C(C(=O)O)N2C(=O)[C@@H](NC(=O)/C(=N\O)c3csc(N)n3)[C@H]2SC1 [monohydrate, 7-[2-(2-aminothiazol-4-yl)-2-hydroxyiminoacetamido]-3-vinyl-3-cephem-4-carboxyl ic acid (syn isomer)]
relative humidity at which water increased to the content corresponding to higher hydrate form ([1]; 25° C., relative humidities of 5 to 95%, microbalance method): more than 70% | hydrate level reached by water content at higher relative humidity ([1]; 25° C., relative humidity such as 95%): trihydrate | crystal form change at high relative humidity (PXRD) ([1]; controlled relative humidity 10, 75 and 95% RH): transformed to another higher hydrate (crystal form C) at high relative humidity | crystalline conversion in aqueous suspension (PXRD of residual solid) [2]: crystalline change from monohydrate to crystal form C was occurred in an aqueous suspension | dispersion state of the suspension [3]: better than that of form A | sedimentation rate [3]: slower than that of form A
